{"source": "patent US10729692B2", "about": "“Dual inhibition of CDK and HSP90 destabilize HIF1alpha and synergistically induces cancer cell death” (Institute For Cancer Research, priority 2017, dated 2020)", "system": "HIF1α", "assay": "Heat shock-induced HIF1α level in HCT116 (Western blot)", "type": "cell-based", "details": "HCT116, normoxia", "excerpt": "HCT116, SW480, HT29, DLD1, and RKO cells were obtained from American Type Culture Collection. HCT116 and HT29 cells were maintained in McCoy's 5A medium (Hyclone) with 10% fetal bovine serum (FBS, Hyclone) and 1% penicillin/streptomycin (P/S). SW480, DLD1, and RCC4 cells were maintained in Dulbecco's modified Eagle medium (Hyclone) with 10% FBS and 1% P/S. RKO cells were maintained in RPMI 1640 medium (Hyclone) with 10% FBS and 1% P/S. Cells were regularly tested and authenticated. All cell lines were maintained at 37° C. in 5% CO2. As for hypoxia treatment, cells were kept in a hypoxia chamber (In vivo^2, Ruskinn) which maintains 0.5% O2.\nTreated cells were lysed in RIPA buffer (Sigma). Protein concentrations were determined using a BCA Protein Assay Kit (Life Technologies). Equal amounts of total protein were boiled with LDS sample buffer (Thermo Fisher Scientific) and reducing agent (Invitrogen). Samples were analyzed with SDS-PAGE. Proteins were transferred to an Immobilon-P PVDF membrane (EMD Millipore). First and secondary antibodies were added in order. Signals were detected after addition of the ECL western blotting substrate (Thermo Fisher Scientific).", "note": "At least one structure is not confirmed: it was looked up by name or label, or the drawing left a doubt."}
{"smiles": "COC1=C2C[C@@H](C)C[C@H](OC)[C@H](O)[C@@H](C)/C=C(\\C)[C@H](OC(N)=O)[C@@H](OC)/C=C\\C=C(/C)C(=O)NC(=CC1=O)C2=O", "note": "[geldanamycin]", "values": [{"measurement": "reversal of heat shock upregulation of HIF1α", "result": "reversed"}]}
